# Results from the supplement of paper PMC8728848.
# Some of the results follow.
# B1: CD34 (Homo sapiens), P28906 (protein)
# chain: MGSSHHHHHHSSGLVPRGSHMSTSLATSPTKPYTSSSPILSDIKAEIKCSGIREVKLTQGICLEQNKTSSCAEFKKDRGEGLARVLCGEEQADADAGAQVCSLLLAQSEVRPQCLLLVLANRTEISSKLQLMKKHQSDLKKLGILDFTEQDVASHQSYSQKT
# Tests used:
# Experiment in all cases: glycan array binding signal (z-score within array); higher = stronger binding
# Conditions in all cases: glycan notation: IUPAC condensed, linker removed
# Glc(b1-4)Glc = target: Glc(b1-4)Glc
# Procedure, shortened: (§1)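 The Consortium for Functional Glycomics database supplied 3228 glycan arrays, of which those lacking an available protein sequence were dropped. The binding signal, a within-array Z-score, was averaged across arrays of the same protein sequence and across linkers. Negative scores can be read as non-binding.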
# Glc(b1-6)Glc = target: Glc(b1-6)Glc
# Procedure, shortened: as §1
# GlcA(b1-3)Gal = target: GlcA(b1-3)Gal
# Procedure, shortened: as §1
# GlcA(b1-3)GlcNAc = target: GlcA(b1-3)GlcNAc
# Procedure, shortened: as §1
# GlcA(b1-6)Gal = target: GlcA(b1-6)Gal
# Procedure, shortened: as §1
# [1] = target: GlcA3S(b1-3)Gal(b1-4)GlcNAc(b1-2)Man
# Procedure, shortened: as §1
# [2] = target: GlcA3S(b1-3)Gal(b1-4)GlcNAc(b1-3)Gal(b1-4)Glc
# Procedure, shortened: as §1
# [3] = target: GlcNAc(a1-3)Gal(b1-4)GlcNAc
# Procedure, shortened: as §1
# [4] = target: GlcNAc(a1-4)Gal(b1-3)GlcNAc
# Procedure, shortened: as §1
# [5] = target: GlcNAc(a1-4)Gal(b1-4)GalNAc
# Procedure, shortened: as §1
# [6] = target: GlcNAc(a1-4)Gal(b1-4)GlcNAc
# Procedure, shortened: as §1
# [7] = target: GlcNAc(a1-4)Gal(b1-4)GlcNAc(b1-3)Gal(b1-4)Glc
# Procedure, shortened: as §1
# [8] = target: GlcNAc(a1-4)Gal(b1-4)GlcNAc(b1-3)Gal(b1-4)GlcNAc
# Procedure, shortened: as §1
# [9] = target: GlcNAc(a1-4)Gal(b1-4)GlcNAc(b1-3)Gal(b1-4)GlcNAc(b1-3)Gal(b1-4)GlcNAc
# Procedure, shortened: as §1
# [10] = target: GlcNAc(a1-4)Gal(b1-4)GlcNAc(b1-3)Gal(b1-4)[Fuc(a1-3)]GlcNAc(b1-3)Gal(b1-4)[Fuc(a1-3)]GlcNAc
# Procedure, shortened: as §1
# [11] = target: GlcNAc(a1-6)Gal(b1-4)GlcNAc
# Procedure, shortened: as §1
# [12] = target: GlcNAc(b1-2)Gal(b1-3)GalNAc
# Procedure, shortened: as §1
# [13] = target: GlcNAc(b1-2)Man(a1-3)[GlcNAc(b1-2)Man(a1-6)]Man(b1-4)GlcNAc(b1-4)GlcNAc
# Procedure, shortened: as §1
# [14] = target: GlcNAc(b1-2)Man(a1-3)[GlcNAc(b1-2)Man(a1-6)]Man(b1-4)GlcNAc(b1-4)[Fuc(a1-6)]GlcNAc
# Procedure, shortened: as §1
# [15] = target: GlcNAc(b1-2)Man(a1-3)[GlcNAc(b1-4)][GlcNAc(b1-2)Man(a1-6)]Man(b1-4)GlcNAc(b1-4)GlcNAc
# Procedure, shortened: as §1
# [16] = target: GlcNAc(b1-2)Man(a1-3)[GlcNAc(b1-4)][GlcNAc(b1-2)Man(a1-6)]Man(b1-4)GlcNAc(b1-4)[Fuc(a1-6)]GlcNAc
# Procedure, shortened: as §1
# [17] = target: GlcNAc(b1-2)[GlcNAc(b1-4)]Man(a1-3)[GlcNAc(b1-2)Man(a1-6)]Man(b1-4)GlcNAc(b1-4)GlcNAc
# Procedure, shortened: as §1
# [18] = target: GlcNAc(b1-2)[GlcNAc(b1-4)]Man(a1-3)[GlcNAc(b1-4)][GlcNAc(b1-2)Man(a1-6)]Man(b1-4)GlcNAc(b1-4)GlcNAc
# Procedure, shortened: as §1
# [19] = target: GlcNAc(b1-2)[GlcNAc(b1-4)]Man(a1-3)[GlcNAc(b1-4)][GlcNAc(b1-2)[GlcNAc(b1-6)]Man(a1-6)]Man(b1-4)GlcNAc(b1-4)GlcNAc
# Procedure, shortened: as §1
# [20] = target: GlcNAc(b1-2)[GlcNAc(b1-4)]Man(a1-3)[GlcNAc(b1-4)][GlcNAc(b1-2)[GlcNAc(b1-6)]Man(a1-6)]Man(b1-4)GlcNAc(b1-4)[Fuc(a1-6)]GlcNAc
# Procedure, shortened: as §1
# [21] = target: GlcNAc(b1-2)[GlcNAc(b1-6)]Man(a1-6)[GlcNAc(b1-2)Man(a1-3)]Man(b1-4)GlcNAc(b1-4)GlcNAc
# Procedure, shortened: as §1
# [22] = target: GlcNAc(b1-2)[GlcNAc(b1-6)]Man(a1-6)[GlcNAc(b1-2)Man(a1-3)]Man(b1-4)GlcNAc(b1-4)[Fuc(a1-6)]GlcNAc
# Procedure, shortened: as §1
# [23] = target: GlcNAc(b1-2)[GlcNAc(b1-6)]Man(a1-6)[GlcNAc(b1-4)][GlcNAc(b1-2)Man(a1-3)]Man(b1-4)GlcNAc(b1-4)GlcNAc
# Procedure, shortened: as §1
# GlcNAc(b1-3)Fuc = target: GlcNAc(b1-3)Fuc
# Procedure, shortened: as §1
# GlcNAc(b1-3)Gal = target: GlcNAc(b1-3)Gal
# Procedure, shortened: as §1
# [24] = target: GlcNAc(b1-3)Gal(b1-3)GalNAc
# Procedure, shortened: as §1
# GlcNAc(b1-3)Gal(b1-4)Glc = target: GlcNAc(b1-3)Gal(b1-4)Glc
# Procedure, shortened: as §1
# [25] = target: GlcNAc(b1-3)Gal(b1-4)GlcNAc
# Procedure, shortened: as §1
# [26] = target: GlcNAc(b1-3)Gal(b1-4)GlcNAc(b1-2)Man(a1-3)[GlcNAc(b1-3)Gal(b1-4)GlcNAc(b1-2)Man(a1-6)]Man(b1-4)GlcNAc(b1-4)GlcNAc
# Procedure, shortened: as §1
# [27] = target: GlcNAc(b1-3)Gal(b1-4)GlcNAc(b1-2)Man(a1-3)[GlcNAc(b1-3)Gal(b1-4)GlcNAc(b1-2)Man(a1-6)]Man(b1-4)GlcNAc(b1-4)[Fuc(a1-6)]GlcNAc
# Procedure, shortened: as §1
# [28] = target: GlcNAc(b1-3)Gal(b1-4)GlcNAc(b1-2)[GlcNAc(b1-3)Gal(b1-4)GlcNAc(b1-6)]Man(a1-6)[GlcNAc(b1-3)Gal(b1-4)GlcNAc(b1-2)Man(a1-3)]Man(b1-4)GlcNAc(b1-4)GlcNAc
# Procedure, shortened: as §1
# [29] = target: GlcNAc(b1-3)Gal(b1-4)GlcNAc(b1-3)Gal(b1-4)GlcNAc
# Procedure, shortened: as §1
# [30] = target: GlcNAc(b1-3)Gal(b1-4)GlcNAc(b1-3)Gal(b1-4)GlcNAc(b1-2)Man(a1-3)[GlcNAc(b1-3)Gal(b1-4)GlcNAc(b1-3)Gal(b1-4)GlcNAc(b1-2)Man(a1-6)]Man(b1-4)GlcNAc(b1-4)GlcNAc
# Procedure, shortened: as §1
# [31] = target: GlcNAc(b1-3)Gal(b1-4)GlcNAc(b1-3)Gal(b1-4)GlcNAc(b1-2)Man(a1-3)[GlcNAc(b1-3)Gal(b1-4)GlcNAc(b1-3)Gal(b1-4)GlcNAc(b1-2)Man(a1-6)]Man(b1-4)GlcNAc(b1-4)[Fuc(a1-6)]GlcNAc
# Procedure, shortened: as §1
# [32] = target: GlcNAc(b1-3)Gal(b1-4)GlcNAc(b1-3)Gal(b1-4)GlcNAc(b1-2)[GlcNAc(b1-3)Gal(b1-4)GlcNAc(b1-3)Gal(b1-4)GlcNAc(b1-6)]Man(a1-6)[GlcNAc(b1-3)Gal(b1-4)GlcNAc(b1-3)Gal(b1-4)GlcNAc(b1-2)Man(a1-3)]Man(b1-4)GlcNAc(b1-4)[Fuc(a1-6)]GlcNAc
# Procedure, shortened: as §1
# [33] = target: GlcNAc(b1-3)Gal(b1-4)GlcNAc(b1-3)Gal(b1-4)GlcNAc(b1-3)Gal(b1-4)GlcNAc(b1-2)Man(a1-3)[GlcNAc(b1-3)Gal(b1-4)GlcNAc(b1-3)Gal(b1-4)GlcNAc(b1-3)Gal(b1-4)GlcNAc(b1-2)Man(a1-6)]Man(b1-4)GlcNAc(b1-4)GlcNAc
# Procedure, shortened: as §1
# [34] = target: GlcNAc(b1-3)Gal(b1-4)GlcNAc(b1-3)Gal(b1-4)GlcNAc(b1-3)Gal(b1-4)GlcNAc(b1-2)Man(a1-3)[GlcNAc(b1-3)Gal(b1-4)GlcNAc(b1-3)Gal(b1-4)GlcNAc(b1-3)Gal(b1-4)GlcNAc(b1-2)Man(a1-6)]Man(b1-4)GlcNAc(b1-4)[Fuc(a1-6)]GlcNAc
# Procedure, shortened: as §1
# [35] = target: GlcNAc(b1-3)Gal(b1-4)GlcNAc(b1-3)Gal(b1-4)GlcNAc(b1-3)Gal(b1-4)GlcNAc(b1-2)[GlcNAc(b1-3)Gal(b1-4)GlcNAc(b1-3)Gal(b1-4)GlcNAc(b1-3)Gal(b1-4)GlcNAc(b1-6)]Man(a1-6)[GlcNAc(b1-3)Gal(b1-4)GlcNAc(b1-3)Gal(b1-4)GlcNAc(b1-3)Gal(b1-4)GlcNAc(b1-2)Man(a1-3)]Man(b1-4)GlcNAc(b1-4)[Fuc(a1-6)]GlcNAc
# Procedure, shortened: as §1
# [36] = target: GlcNAc(b1-3)Gal(b1-4)GlcNAc(b1-3)Gal(b1-4)GlcNAc(b1-3)Gal(b1-4)GlcNAc(b1-3)Gal(b1-4)GlcNAc(b1-2)Man(a1-3)[GlcNAc(b1-3)Gal(b1-4)GlcNAc(b1-3)Gal(b1-4)GlcNAc(b1-3)Gal(b1-4)GlcNAc(b1-3)Gal(b1-4)GlcNAc(b1-2)Man(a1-6)]Man(b1-4)GlcNAc(b1-4)GlcNAc
# Procedure, shortened: as §1
# [37] = target: GlcNAc(b1-3)Gal(b1-4)GlcNAc(b1-3)Gal(b1-4)GlcNAc(b1-3)Gal(b1-4)GlcNAc(b1-3)Gal(b1-4)GlcNAc(b1-2)Man(a1-3)[GlcNAc(b1-3)Gal(b1-4)GlcNAc(b1-3)Gal(b1-4)GlcNAc(b1-3)Gal(b1-4)GlcNAc(b1-3)Gal(b1-4)GlcNAc(b1-2)Man(a1-6)]Man(b1-4)GlcNAc(b1-4)[Fuc(a1-6)]GlcNAc
# Procedure, shortened: as §1
binder,measurement,setting,value
B1,glycan array binding signal (z-score),Glc(b1-4)Glc,0.603
same,glycan array binding signal (z-score),Glc(b1-6)Glc,-1.19
same,glycan array binding signal (z-score),GlcA(b1-3)Gal,-0.005
same,glycan array binding signal (z-score),GlcA(b1-3)GlcNAc,-0.132
same,glycan array binding signal (z-score),GlcA(b1-6)Gal,-0.021
same,glycan array binding signal (z-score),[1],0.913
same,glycan array binding signal (z-score),[2],-0.551
same,glycan array binding signal (z-score),[3],0.288
same,glycan array binding signal (z-score),[4],-0.399
same,glycan array binding signal (z-score),[5],0.052
same,glycan array binding signal (z-score),[6],-0.196
same,glycan array binding signal (z-score),[7],-0.657
same,glycan array binding signal (z-score),[8],-0.41
same,glycan array binding signal (z-score),[9],0.008
same,glycan array binding signal (z-score),[10],0.937
same,glycan array binding signal (z-score),[11],-0.269
same,glycan array binding signal (z-score),[12],1.04
same,glycan array binding signal (z-score),[13],-0.07
same,glycan array binding signal (z-score),[14],0.901
same,glycan array binding signal (z-score),[15],-0.541
same,glycan array binding signal (z-score),[16],-0.832
same,glycan array binding signal (z-score),[17],-0.523
same,glycan array binding signal (z-score),[18],-0.524
same,glycan array binding signal (z-score),[19],-0.258
same,glycan array binding signal (z-score),[20],-0.488
same,glycan array binding signal (z-score),[21],-0.052
same,glycan array binding signal (z-score),[22],0.924
same,glycan array binding signal (z-score),[23],-0.731
same,glycan array binding signal (z-score),GlcNAc(b1-3)Fuc,-1.22
same,glycan array binding signal (z-score),GlcNAc(b1-3)Gal,-0.155
same,glycan array binding signal (z-score),[24],0.146
same,glycan array binding signal (z-score),GlcNAc(b1-3)Gal(b1-4)Glc,0.183
same,glycan array binding signal (z-score),[25],-0.319
same,glycan array binding signal (z-score),[26],-0.074
same,glycan array binding signal (z-score),[27],-0.026
same,glycan array binding signal (z-score),[28],-0.175
same,glycan array binding signal (z-score),[29],-0.666
same,glycan array binding signal (z-score),[30],0.842
same,glycan array binding signal (z-score),[31],0.264
same,glycan array binding signal (z-score),[32],0.954
same,glycan array binding signal (z-score),[33],0.192
same,glycan array binding signal (z-score),[34],-0.141
same,glycan array binding signal (z-score),[35],0.443
same,glycan array binding signal (z-score),[36],0.347
same,glycan array binding signal (z-score),[37],-0.827

# 2 entries drawn at random from the list so far:
binder,measurement,setting,value
B1,glycan array binding signal (z-score),GlcNAc(b1-3)Gal(b1-4)Glc,0.183
same,glycan array binding signal (z-score),[30],0.842
